Reference: publication PMC7425898
Results are given in words; binding and its absence hold for the method and conditions named. For some assays here: Binding seen in cells or lysates may run through a third protein. Some entries that bind do so weakly or less than the wild type.

Chains of the proteins cited; added tags and fusions are not shown. Lines headed by an entry give the natural chain unless they say otherwise; changes in a name come on top.
UniProt Q9H4A6: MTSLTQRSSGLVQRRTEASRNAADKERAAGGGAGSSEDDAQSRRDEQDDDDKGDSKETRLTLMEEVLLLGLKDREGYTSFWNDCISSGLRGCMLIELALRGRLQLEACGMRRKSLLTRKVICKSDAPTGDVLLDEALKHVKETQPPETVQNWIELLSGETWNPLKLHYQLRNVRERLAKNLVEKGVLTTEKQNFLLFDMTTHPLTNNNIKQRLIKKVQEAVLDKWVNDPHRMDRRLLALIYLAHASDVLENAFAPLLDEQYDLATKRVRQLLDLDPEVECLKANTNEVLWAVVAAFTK
UniProt Q9H0U4: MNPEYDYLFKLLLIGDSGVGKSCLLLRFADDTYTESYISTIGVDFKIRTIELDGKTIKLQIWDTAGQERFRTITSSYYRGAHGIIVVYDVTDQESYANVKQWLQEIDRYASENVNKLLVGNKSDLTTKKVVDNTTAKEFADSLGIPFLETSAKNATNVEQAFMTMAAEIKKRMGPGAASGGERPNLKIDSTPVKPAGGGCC
UniProt P62820: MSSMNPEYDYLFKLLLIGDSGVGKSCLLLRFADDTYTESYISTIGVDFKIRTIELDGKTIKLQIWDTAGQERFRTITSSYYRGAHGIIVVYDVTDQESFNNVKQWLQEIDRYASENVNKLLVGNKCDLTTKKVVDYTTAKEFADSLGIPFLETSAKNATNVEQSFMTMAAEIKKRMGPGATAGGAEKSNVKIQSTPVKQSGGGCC

Columns and labels:
[1] = target: Gal4bd fused to human GOLPH3 (human) (UniProt Q9H4A6); test: two-hybrid; Gal4bd-GOLPH3 with Gal4ad-RAB1A/B variants co-transformed in yeast; growth on -His plates at 30°C
[2] = target: GST-RAB1B-S22N (human) (UniProt Q9H0U4); test: pull-down; GST or GST-tagged RAB1A/B variants on glutathione-Sepharose 4B, soluble protein extract of H4 cells (0.5 mg) with protease and phosphatase inhibitors; binding buffer-1; 3 h, 4°C; immunoblot for GOLPH3, densitometry; only the target purified
[3] = target: GST-RAB1B (wild type) (human) (UniProt Q9H0U4); test: as above
[4] = target: GST-RAB1A-S25N (human) (UniProt P62820); test: as above
[5] = target: GST-RAB1A (wild type) (human) (UniProt P62820); test: as above
[6] = target: GFP-RAB1A-S25N (human) (UniProt P62820); test: co-IP; GFP-Trap agarose beads with extracts (0.2 mg) of H4 cells expressing GFP or GFP-RAB1A/B variants, supplemented with extract (0.3 mg) of non-transfected cells; 25 mM Tris-HCl, 50 mM NaCl, 0.1% NP-40, pH 7.5; 1.5-4 h, 4°C; immunoblot for GOLPH3, densitometry
[7] = target: GFP-RAB1B (wild type) (human) (UniProt Q9H0U4); test: as above
[8] = target: GFP-RAB1A (wild type) (human) (UniProt P62820); test: as above
[9] = target: GFP-RAB1B-S22N (human) (UniProt Q9H0U4); test: as above

Substance: Gal4ad fused to RAB1B wild type (from UniProt Q9H0U4 1-201)
- binding [1]: binds

Substance: Endogenous GOLPH3 (from UniProt Q9H4A6 1-298)
- binding [2]: binds
- binding [3]: binds
- binding [4]: binds
- binding [5]: binds
- binding [6]: binds
- binding [7]: binds
- binding [8]: binds
- binding [9]: binds

Substance: Gal4ad fused to RAB1B-S22N (from UniProt Q9H0U4 1-201)
- binding [1]: binds

Substance: Gal4ad fused to RAB1A-S25N (from UniProt P62820 1-205)
- binding [1]: binds

Substance: Gal4ad fused to RAB1A-Q70L (from UniProt P62820 1-205)
- binding [1]: binds

Substance: Gal4ad fused to RAB1B-Q67L (from UniProt Q9H0U4 1-201)
- binding [1]: binds

Substance: Gal4ad fused to RAB1A wild type (from UniProt P62820 1-205)
- binding [1]: binds
